Data taken from publication PMC12586438.
Results are given in words; binding and its absence hold for the method and conditions named. In cells and extracts the contact can be indirect. Some binding calls cover weakened binding; strength is not graded here. For part of these data: Sequences can lack the tags named with a protein.

Experiments:
[1] = target: T1, Fas apoptotic inhibitory molecule 2 (Flag-FAIM2) (UniProt Q9BWQ8); assay: co-IP; HEK293T cells transfected with the indicated plasmids; immunoprecipitation and western blot
T1 sequence: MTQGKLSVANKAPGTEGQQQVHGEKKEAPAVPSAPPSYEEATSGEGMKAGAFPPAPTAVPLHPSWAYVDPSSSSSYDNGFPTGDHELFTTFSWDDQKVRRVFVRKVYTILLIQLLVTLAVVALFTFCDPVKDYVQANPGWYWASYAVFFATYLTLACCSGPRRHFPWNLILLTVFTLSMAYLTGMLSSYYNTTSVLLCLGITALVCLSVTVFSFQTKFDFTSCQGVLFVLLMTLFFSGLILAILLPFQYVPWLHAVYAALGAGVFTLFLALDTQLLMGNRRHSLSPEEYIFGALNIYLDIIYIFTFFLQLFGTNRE

[2] = target: T2, FAIM2 in PAOA-treated hepatocytes (UniProt Q8K097); assay: co-IP; PAOA-treated hepatocytes; immunoprecipitation and western blot
T2 sequence: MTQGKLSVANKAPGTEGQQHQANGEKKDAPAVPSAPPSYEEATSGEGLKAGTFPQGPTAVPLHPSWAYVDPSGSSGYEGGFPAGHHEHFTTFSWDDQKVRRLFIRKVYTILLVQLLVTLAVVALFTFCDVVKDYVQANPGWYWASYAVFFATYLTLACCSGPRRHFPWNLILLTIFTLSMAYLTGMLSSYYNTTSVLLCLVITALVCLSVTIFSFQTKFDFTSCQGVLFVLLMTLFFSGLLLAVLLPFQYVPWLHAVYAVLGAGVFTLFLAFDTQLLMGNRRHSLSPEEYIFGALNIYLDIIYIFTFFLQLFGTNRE

[3] = target: T3, FAIM2 of the GST pulldown assay (UniProt Q9BWQ8); assay: pull-down; GST pulldown assay and western blot, 'in HEK293T cells'; which partner carried GST not stated
T3 sequence: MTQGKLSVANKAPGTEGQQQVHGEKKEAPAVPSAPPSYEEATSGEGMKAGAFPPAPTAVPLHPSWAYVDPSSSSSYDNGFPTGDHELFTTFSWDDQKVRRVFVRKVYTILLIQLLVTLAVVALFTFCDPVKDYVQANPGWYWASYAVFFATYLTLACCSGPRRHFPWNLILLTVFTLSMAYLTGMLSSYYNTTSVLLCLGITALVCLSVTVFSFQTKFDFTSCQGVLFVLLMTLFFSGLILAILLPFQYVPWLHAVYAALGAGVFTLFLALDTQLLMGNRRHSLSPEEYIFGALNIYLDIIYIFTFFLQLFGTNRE

B1: CREB-regulated transcription coactivator 2 (HA-CRTC2) (protein, UniProt Q53ET0 1-693)
chain: MATSGANGPGSATASASNPRKFSEKIALQKQRQAEETAAFEEVMMDIGSTRLQAQKLRLAYTRSSHYGGSLPNVNQIGSGLAEFQSPLHSPLDSSRSTRHHGLVERVQRDPRRMVSPLRRYTRHIDSSPYSPAYLSPPPESSWRRTMAWGNFPAEKGQLFRLPSALNRTSSDSALHTSVMNPSPQDTYPGPTPPSILPSRRGGILDGEMDPKVPAIEENLLDDKHLLKPWDAKKLSSSSSRPRSCEVPGINIFPSPDQPANVPVLPPAMNTGGSLPDLTNLHFPPPLPTPLDPEETAYPSLSGGNSTSNLTHTMTHLGISRGMGLGPGYDAPGLHSPLSHPSLQSSLSNPNLQASLSSPQPQLQGSHSHPSLPASSLARHVLPTTSLGHPSLSAPALSSSSSSSSTSSPVLGAPSYPASTPGASPHHRRVPLSPLSLLAGPADARRSQQQLPKQFSPTMSPTLSSITQGVPLDTSKLSTDQRLPPYPYSSPSLVLPTQPHTPKSLQQPGLPSQSCSVQSSGGQPPGRQSHYGTPYPPGPSGHGQQSYHRPMSDFNLGNLEQFSMESPSASLVLDPPGFSEGPGFLGGEGPMGGPQDPHTFNHQNLTHCSRHGSGPNIILTGDSSPGFSKEIAAALAGVPGFEVSAAGLELGLGLEDELRMEPLGLEGLNMLSDPCALLPDPAVEESFRSDRLQ
For B1, the binding [1] was “binds”.

B2: CRTC2 in PAOA-treated hepatocytes (protein, UniProt Q3U182 1-692)
chain: MATSGANGPGSATASASNPRKFSEKIALQKQRQAEETAAFEEVMMDIGSTRLQAQKLRLAYTRSSHYGGSLPNVNQIGCGLAEFQSPLHSPLDSSRSTRHHGLVERVQRDARRMVSPLRRYPRHIDSSPYSPAYLSPPPESGWRRMMPWGNLPAEKGQLFRLPSALNRTSSDSALHTSVMNPNPQDTYPGPTPPSVLPSRRGGGFLDGEMDAKVPAIEENVVDDKHLLKPWDAKKLSSSSSRPRSCEVPGINIFPSPDQPANVPVLPPAMNTGGSLPDLTNLHFPPPLPTPLDPEETVYPSLSGGNSTTNLTHTMTHLGISGGLGLGPSYDVPGLHSPLSHPSLQSSLSNPNLQASLSSPQPQLQGSHSHPSLPASSLAHHALPTTSLGHPSLSAPALSSSSSSSSTSSPVLSAPPYPASTPGASPRHRRVPLSPLSLPAGPADARRSQQQLPKQFSPTMSPTLSSITQGVPLDTSKLPTDQRLPPYPYSPPSLVIPTHPPTPKSLQQLPSQACLVQPSGGQPPGRQPHYGALYPPGSSGHGQQPYHRPINDFSLGNLEQFNMESPSTSLVLDPPAFSEGPGFLGSEGSMSGPQDPHVLNHQNLTHCSRHGSGPNIILTGDSSPGFSKEIAAALAGVPGFEVSASGLELGLGLEDELRMEPLGLEGLTMLSDPCALLPDPAVEDSFRSDRLQ
With B2 the binding [2] was “binds”.

B3: CRTC2 of the GST pulldown assay (protein, UniProt Q53ET0 1-693)
chain: MATSGANGPGSATASASNPRKFSEKIALQKQRQAEETAAFEEVMMDIGSTRLQAQKLRLAYTRSSHYGGSLPNVNQIGSGLAEFQSPLHSPLDSSRSTRHHGLVERVQRDPRRMVSPLRRYTRHIDSSPYSPAYLSPPPESSWRRTMAWGNFPAEKGQLFRLPSALNRTSSDSALHTSVMNPSPQDTYPGPTPPSILPSRRGGILDGEMDPKVPAIEENLLDDKHLLKPWDAKKLSSSSSRPRSCEVPGINIFPSPDQPANVPVLPPAMNTGGSLPDLTNLHFPPPLPTPLDPEETAYPSLSGGNSTSNLTHTMTHLGISRGMGLGPGYDAPGLHSPLSHPSLQSSLSNPNLQASLSSPQPQLQGSHSHPSLPASSLARHVLPTTSLGHPSLSAPALSSSSSSSSTSSPVLGAPSYPASTPGASPHHRRVPLSPLSLLAGPADARRSQQQLPKQFSPTMSPTLSSITQGVPLDTSKLSTDQRLPPYPYSSPSLVLPTQPHTPKSLQQPGLPSQSCSVQSSGGQPPGRQSHYGTPYPPGPSGHGQQSYHRPMSDFNLGNLEQFSMESPSASLVLDPPGFSEGPGFLGGEGPMGGPQDPHTFNHQNLTHCSRHGSGPNIILTGDSSPGFSKEIAAALAGVPGFEVSAAGLELGLGLEDELRMEPLGLEGLNMLSDPCALLPDPAVEESFRSDRLQ
In the case of B3, the binding [3] is reported as “binds”.
